Reference: article doi:10.1101/2021.12.13.472398
Results are given in words; binding and its absence hold for the method and conditions named. Binding seen in cells or lysates may run through a third protein. A yes stands for co-enrichment or nearness to the bait. Other partners may have been found.

By UniProt entry, the sequences of proteins in these tests, tags left out.
UniProt P06537: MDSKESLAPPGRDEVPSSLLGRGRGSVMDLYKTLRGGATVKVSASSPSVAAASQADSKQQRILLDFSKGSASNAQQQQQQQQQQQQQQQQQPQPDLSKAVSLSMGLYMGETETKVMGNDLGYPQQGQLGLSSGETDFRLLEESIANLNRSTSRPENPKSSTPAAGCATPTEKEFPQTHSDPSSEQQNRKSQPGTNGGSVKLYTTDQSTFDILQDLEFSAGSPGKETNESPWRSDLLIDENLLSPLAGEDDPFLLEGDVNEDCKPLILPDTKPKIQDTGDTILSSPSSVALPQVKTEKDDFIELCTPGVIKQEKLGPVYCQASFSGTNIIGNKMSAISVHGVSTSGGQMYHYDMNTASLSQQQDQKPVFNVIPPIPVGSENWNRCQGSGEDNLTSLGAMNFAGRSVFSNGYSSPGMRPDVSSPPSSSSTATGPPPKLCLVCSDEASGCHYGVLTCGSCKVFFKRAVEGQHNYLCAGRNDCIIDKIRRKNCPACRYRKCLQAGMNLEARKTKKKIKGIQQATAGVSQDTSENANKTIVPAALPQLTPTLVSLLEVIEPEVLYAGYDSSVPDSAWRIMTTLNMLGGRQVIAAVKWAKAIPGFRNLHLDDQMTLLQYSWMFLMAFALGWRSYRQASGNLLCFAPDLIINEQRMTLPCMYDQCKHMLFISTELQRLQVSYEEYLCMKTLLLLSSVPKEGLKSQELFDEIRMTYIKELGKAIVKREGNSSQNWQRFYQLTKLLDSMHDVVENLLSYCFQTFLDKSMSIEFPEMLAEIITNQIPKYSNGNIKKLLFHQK
UniProt A2BH40: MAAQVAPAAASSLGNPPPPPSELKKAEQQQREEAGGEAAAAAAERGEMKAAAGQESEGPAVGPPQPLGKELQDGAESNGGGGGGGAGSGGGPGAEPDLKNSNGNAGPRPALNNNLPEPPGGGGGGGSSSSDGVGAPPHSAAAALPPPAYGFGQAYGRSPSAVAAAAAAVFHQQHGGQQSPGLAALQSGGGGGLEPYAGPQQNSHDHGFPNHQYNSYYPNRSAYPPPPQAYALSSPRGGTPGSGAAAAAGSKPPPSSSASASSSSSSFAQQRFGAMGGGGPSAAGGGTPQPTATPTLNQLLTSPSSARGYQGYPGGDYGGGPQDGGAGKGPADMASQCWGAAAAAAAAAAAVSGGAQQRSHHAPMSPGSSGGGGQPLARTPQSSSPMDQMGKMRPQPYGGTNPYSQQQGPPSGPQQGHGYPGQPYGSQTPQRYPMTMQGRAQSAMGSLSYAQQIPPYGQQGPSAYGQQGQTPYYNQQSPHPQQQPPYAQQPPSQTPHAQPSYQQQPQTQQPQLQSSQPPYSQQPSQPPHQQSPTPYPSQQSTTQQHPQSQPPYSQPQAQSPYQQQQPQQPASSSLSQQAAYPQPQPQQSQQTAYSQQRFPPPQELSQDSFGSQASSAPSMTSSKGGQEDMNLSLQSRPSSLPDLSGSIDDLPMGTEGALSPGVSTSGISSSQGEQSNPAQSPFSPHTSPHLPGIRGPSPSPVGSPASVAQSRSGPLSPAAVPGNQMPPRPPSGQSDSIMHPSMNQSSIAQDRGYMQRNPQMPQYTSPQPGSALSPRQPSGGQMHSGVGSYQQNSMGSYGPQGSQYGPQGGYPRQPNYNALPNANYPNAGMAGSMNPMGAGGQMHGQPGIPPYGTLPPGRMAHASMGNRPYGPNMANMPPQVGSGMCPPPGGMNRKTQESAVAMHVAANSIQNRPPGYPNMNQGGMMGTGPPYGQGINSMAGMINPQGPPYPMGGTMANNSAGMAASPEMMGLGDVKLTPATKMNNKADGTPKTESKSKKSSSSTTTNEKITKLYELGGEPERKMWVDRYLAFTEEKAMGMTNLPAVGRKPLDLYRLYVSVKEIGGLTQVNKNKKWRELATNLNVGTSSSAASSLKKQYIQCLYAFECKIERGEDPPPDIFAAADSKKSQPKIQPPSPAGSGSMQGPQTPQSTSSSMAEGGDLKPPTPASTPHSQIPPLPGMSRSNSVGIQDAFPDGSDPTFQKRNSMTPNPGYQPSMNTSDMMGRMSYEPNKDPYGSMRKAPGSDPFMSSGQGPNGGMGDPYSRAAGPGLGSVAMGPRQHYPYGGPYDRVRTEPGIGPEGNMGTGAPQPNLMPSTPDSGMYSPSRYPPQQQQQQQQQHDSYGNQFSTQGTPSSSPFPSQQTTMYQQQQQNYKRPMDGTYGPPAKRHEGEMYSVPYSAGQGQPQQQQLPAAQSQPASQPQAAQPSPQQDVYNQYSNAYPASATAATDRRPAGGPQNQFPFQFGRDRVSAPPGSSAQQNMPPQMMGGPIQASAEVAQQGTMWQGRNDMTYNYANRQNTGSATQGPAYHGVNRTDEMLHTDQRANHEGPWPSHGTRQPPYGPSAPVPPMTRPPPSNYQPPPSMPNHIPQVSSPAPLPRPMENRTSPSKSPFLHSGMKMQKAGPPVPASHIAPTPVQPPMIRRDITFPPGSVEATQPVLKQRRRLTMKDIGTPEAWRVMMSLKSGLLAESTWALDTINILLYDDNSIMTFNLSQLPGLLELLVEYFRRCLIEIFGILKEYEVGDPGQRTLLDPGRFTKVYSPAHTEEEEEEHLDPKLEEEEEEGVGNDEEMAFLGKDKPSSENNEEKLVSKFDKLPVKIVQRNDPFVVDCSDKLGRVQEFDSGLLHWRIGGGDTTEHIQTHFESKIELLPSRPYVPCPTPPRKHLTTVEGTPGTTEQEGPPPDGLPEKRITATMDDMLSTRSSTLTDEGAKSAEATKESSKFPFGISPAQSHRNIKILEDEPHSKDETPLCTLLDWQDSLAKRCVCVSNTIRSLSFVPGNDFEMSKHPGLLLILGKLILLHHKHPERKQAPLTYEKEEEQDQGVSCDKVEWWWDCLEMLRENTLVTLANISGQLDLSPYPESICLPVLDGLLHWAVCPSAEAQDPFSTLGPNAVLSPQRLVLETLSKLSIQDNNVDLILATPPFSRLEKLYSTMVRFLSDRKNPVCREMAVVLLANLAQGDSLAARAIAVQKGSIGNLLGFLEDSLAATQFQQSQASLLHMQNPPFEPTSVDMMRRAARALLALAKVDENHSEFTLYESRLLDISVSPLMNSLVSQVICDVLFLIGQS
UniProt Q99JR8: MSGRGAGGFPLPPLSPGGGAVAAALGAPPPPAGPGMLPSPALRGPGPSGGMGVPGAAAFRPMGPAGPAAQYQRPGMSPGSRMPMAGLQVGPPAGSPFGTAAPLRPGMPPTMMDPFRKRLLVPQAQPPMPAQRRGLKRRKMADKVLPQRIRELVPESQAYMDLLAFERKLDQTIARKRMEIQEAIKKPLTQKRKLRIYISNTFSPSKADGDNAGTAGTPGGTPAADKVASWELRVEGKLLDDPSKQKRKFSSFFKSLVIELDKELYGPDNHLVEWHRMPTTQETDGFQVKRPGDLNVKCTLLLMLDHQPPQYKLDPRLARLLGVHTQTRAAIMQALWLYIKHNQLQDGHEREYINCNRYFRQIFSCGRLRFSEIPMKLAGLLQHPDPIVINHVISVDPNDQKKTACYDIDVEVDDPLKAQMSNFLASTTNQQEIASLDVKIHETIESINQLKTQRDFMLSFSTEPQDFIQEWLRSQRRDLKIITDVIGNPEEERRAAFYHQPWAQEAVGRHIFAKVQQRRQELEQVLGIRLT
UniProt O54941: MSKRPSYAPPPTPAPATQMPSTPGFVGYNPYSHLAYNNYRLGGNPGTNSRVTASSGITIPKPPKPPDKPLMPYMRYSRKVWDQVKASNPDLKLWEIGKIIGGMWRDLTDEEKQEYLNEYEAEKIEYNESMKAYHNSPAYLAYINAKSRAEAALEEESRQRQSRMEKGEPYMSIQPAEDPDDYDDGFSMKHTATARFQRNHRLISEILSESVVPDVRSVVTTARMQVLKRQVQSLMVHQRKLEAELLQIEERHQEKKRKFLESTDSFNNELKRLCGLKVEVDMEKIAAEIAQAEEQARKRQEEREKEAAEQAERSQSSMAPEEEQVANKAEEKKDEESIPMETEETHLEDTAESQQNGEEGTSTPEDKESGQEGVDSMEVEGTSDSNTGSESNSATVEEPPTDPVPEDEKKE

Each substance was assayed against Glucocorticoid Receptor (mouse (endogenous in primary murine macrophages and RAW264.7)) (UniProt P06537) (assay: affinity purification with mass spectrometry).

binding	Substance
binds	ARID1A (BAF250) (from UniProt A2BH40 1-2283)
binds	SMARCD2 (BAF60B) (from UniProt Q99JR8 1-531)
binds	SMARCE1 (BAF57) (from UniProt O54941 1-411)
